Laboratory results from the supplement of paper PMC12067093, “Discovery and optimisation of a covalent ligand for TRIM25 and its application to targeted protein ubiquitination” (Chemical Science, 2025).
The other results are listed elsewhere or left out.

compound: Cc1cc(ccc1-c1ccccc1)C(=O)N1CCCN(CC1)C(=O)CCl [compound 10]; test: probe-labelled cysteine peptide fold change vs DMSO (competition) (log2 fold change); higher = less target engagement (more negative = stronger competition); settings: 10 µM; THP-1; incubation time: 4 h
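Note: competitive profiling in live THP-1 cells: cysteine peptides tagged with an iodoacetamide desthiobiotin (IA-DTB) probe, intensity after compound treatment relative to DMSO-treated cells.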

Target | probe-labelled cysteine peptide fold change
PHF6_Q8IWS0_82_LMCSLCHCPGATIGCDVK (UniProt Q8IWS0) | 0.283
PIK3C3_Q8NEB9_336_CVNWDLPQEAK (UniProt Q8NEB9) | 0.0653
PHF1_O43189_327_CLFGLHAR (UniProt O43189) | -0.212
PI4KA_P42356_58_LLCMCPVDFHGIFQLDER (UniProt P42356) | 0.076
PHIP_Q8WWQ0_1020_YEVGLPTLCCLK (UniProt Q8WWQ0) | 0.0426
PIBF1_Q8WXW3_199_EICELQVK (UniProt Q8WXW3) | 0.0221
PGK1_P00558_367+379+380_GCITIIGGGDTATCCAK (UniProt P00558) | 0.425
PIK3C3_Q8NEB9_476_EVPDGENLEQDLCTFLISR (UniProt Q8NEB9) | 0.232
PHIP_Q8WWQ0_1382_ETLEAGNYESPMELCK (UniProt Q8WWQ0) | -0.108
PGAM5_Q96HS1_12_QALQLAACGLAGGSAAVLFSAVAVGKPR (UniProt Q96HS1) | -0.116
PECAM1_P16284_476_DNPTEDVEYQCVADNCHSHAK (UniProt P16284) | -0.134
PHIP_Q8WWQ0_245_GHAAEISDMAVNYENTMIAAGSCDK (UniProt Q8WWQ0) | 0.0153
PHF3_Q92576_627_QCHKPQQQAPAMK (UniProt Q92576) | -0.059
PIGQ_Q9BRB3_247_LSTCEQLR (UniProt Q9BRB3) | -0.169
PECAM1_P16284_109_CTVIVNNK (UniProt P16284) | 0.0288
PFAS_O15067_66_KLMWLFGCPLLLDDVAR (UniProt O15067) | -0.229
PEBP1_P30086_133_YVWLVYEQDRPLKCDEPILSNR (UniProt P30086) | -0.314
PFKFB3_Q16875_178_DCNSAEAMDDFMK (UniProt Q16875) | 0.00332
PGD_P52209_199_MVHNGIEYGDMQLICEAYHLMK (UniProt P52209) | 0.181
PHF1_O43189_139_QCVFAIATK (UniProt O43189) | 0.0794

Target | probe-labelled cysteine peptide fold change
PGM2L1_Q6PCE3_125_GQVTSSCSSQR (UniProt Q6PCE3) | -0.0436
PI4KA_P42356_459_DEQGAENLCIK (UniProt P42356) | 0.0831
PGGT1B_P53609_131_APGTAHPYDSGHIAMTYTGLSCLVILGDDLSR (UniProt P53609) | 0.242
PGK1_P00558_367_GCITIIGGGDTATCCAK (UniProt P00558) | 0.0756
PICK1_Q9NRD5_145_AILCNDGLVK (UniProt Q9NRD5) | -0.0645
PHPT1_Q9NRX4_73_QGCDCECLGGGR (UniProt Q9NRX4) | 0.0619
PHF14_O94880_518_NYLALQSYCK (UniProt O94880) | -0.209
PIAS1_O75925_335_VSLLCPLGK (UniProt O75925) | 0.122
PHF10_Q8WUB8_451_TCIICGQPHHEEEMMFCDMCDR (UniProt Q8WUB8) | -0.00578
PGK1_P00558_99_DCVGPEVEK (UniProt P00558) | -0.2
PFKL_P17858_351_LPLMECVQMTK (UniProt P17858) | 0.113
PFKP_Q01813_718_KFTTDDSICVLGISK (UniProt Q01813) | -0.0112
PHF3_Q92576_186_EEVCMSLKPEYHK (UniProt Q92576) | -0.339
PEPD_P12955_482_TVEEIEACMAGCDK (UniProt P12955) | -0.226
PIAS3_Q9Y6X2_620_EGHGGPLPSGPSLTGCR (UniProt Q9Y6X2) | 0.192
PGAM5_Q96HS1_229_QEEDSYEIFICHANVIR (UniProt Q96HS1) | 0.109
PHLPP1_O60346_859_LGDLDAMIFNNIEVLHCER (UniProt O60346) | 0.189
PHF21A_Q96BD5_514_VYHLDCLDPPLK (UniProt Q96BD5) | 0.215
PHIP_Q8WWQ0_1692_KLQYAKPEDLEQNNVHPIRDEVLPSSTCNFLSETNNVK (UniProt Q8WWQ0) | 0.0624

same assay, conditions: 50 µM; THP-1; incubation time: 4 h

Target | probe-labelled cysteine peptide fold change
PHF6_Q8IWS0_82_LMCSLCHCPGATIGCDVK (UniProt Q8IWS0) | 0.172
PIK3C3_Q8NEB9_336_CVNWDLPQEAK (UniProt Q8NEB9) | 0.108
PHF1_O43189_327_CLFGLHAR (UniProt O43189) | -0.309
PI4KA_P42356_58_LLCMCPVDFHGIFQLDER (UniProt P42356) | -0.137
PHIP_Q8WWQ0_1020_YEVGLPTLCCLK (UniProt Q8WWQ0) | -0.0146
PIBF1_Q8WXW3_199_EICELQVK (UniProt Q8WXW3) | -0.0281
PGK1_P00558_367+379+380_GCITIIGGGDTATCCAK (UniProt P00558) | -0.635
PIK3C3_Q8NEB9_476_EVPDGENLEQDLCTFLISR (UniProt Q8NEB9) | 0.0723
PHIP_Q8WWQ0_1382_ETLEAGNYESPMELCK (UniProt Q8WWQ0) | -0.00466
PGAM5_Q96HS1_12_QALQLAACGLAGGSAAVLFSAVAVGKPR (UniProt Q96HS1) | -0.523
PECAM1_P16284_476_DNPTEDVEYQCVADNCHSHAK (UniProt P16284) | -0.196
PHIP_Q8WWQ0_245_GHAAEISDMAVNYENTMIAAGSCDK (UniProt Q8WWQ0) | -0.0397
PHF3_Q92576_627_QCHKPQQQAPAMK (UniProt Q92576) | -0.385
PIGQ_Q9BRB3_247_LSTCEQLR (UniProt Q9BRB3) | -0.666
PECAM1_P16284_109_CTVIVNNK (UniProt P16284) | 0.348
PFAS_O15067_66_KLMWLFGCPLLLDDVAR (UniProt O15067) | -0.429
PEBP1_P30086_133_YVWLVYEQDRPLKCDEPILSNR (UniProt P30086) | -0.84
PFKFB3_Q16875_178_DCNSAEAMDDFMK (UniProt Q16875) | 0.0296
PGD_P52209_199_MVHNGIEYGDMQLICEAYHLMK (UniProt P52209) | 0.029
PHF1_O43189_139_QCVFAIATK (UniProt O43189) | -0.157

Target | probe-labelled cysteine peptide fold change
PGM2L1_Q6PCE3_125_GQVTSSCSSQR (UniProt Q6PCE3) | -0.0814
PI4KA_P42356_459_DEQGAENLCIK (UniProt P42356) | 0.0987
PGGT1B_P53609_131_APGTAHPYDSGHIAMTYTGLSCLVILGDDLSR (UniProt P53609) | 0.21
PGK1_P00558_367_GCITIIGGGDTATCCAK (UniProt P00558) | -0.00293
PICK1_Q9NRD5_145_AILCNDGLVK (UniProt Q9NRD5) | -0.0103
PHPT1_Q9NRX4_73_QGCDCECLGGGR (UniProt Q9NRX4) | -0.0266
PHF14_O94880_518_NYLALQSYCK (UniProt O94880) | -0.0964
PIAS1_O75925_335_VSLLCPLGK (UniProt O75925) | -0.127
PHF10_Q8WUB8_451_TCIICGQPHHEEEMMFCDMCDR (UniProt Q8WUB8) | 0.164
PGK1_P00558_99_DCVGPEVEK (UniProt P00558) | -0.0544
PFKL_P17858_351_LPLMECVQMTK (UniProt P17858) | -0.00912
PFKP_Q01813_718_KFTTDDSICVLGISK (UniProt Q01813) | -0.172
PHF3_Q92576_186_EEVCMSLKPEYHK (UniProt Q92576) | -0.228
PEPD_P12955_482_TVEEIEACMAGCDK (UniProt P12955) | -0.358
PIAS3_Q9Y6X2_620_EGHGGPLPSGPSLTGCR (UniProt Q9Y6X2) | 0.654
PGAM5_Q96HS1_229_QEEDSYEIFICHANVIR (UniProt Q96HS1) | 0.432
PHLPP1_O60346_859_LGDLDAMIFNNIEVLHCER (UniProt O60346) | 0.162
PHF21A_Q96BD5_514_VYHLDCLDPPLK (UniProt Q96BD5) | 0.335
PHIP_Q8WWQ0_1692_KLQYAKPEDLEQNNVHPIRDEVLPSSTCNFLSETNNVK (UniProt Q8WWQ0) | -0.454
